The nature of data set [1]: Metabolic stability in human liver microsomes assessed as compound remaining after 30 mins. Format: ADME, Microsome. As to conditions: read-out: Stability. Background: Liver microsomes are vesicles of endoplasmic reticulum, rich in cytochrome P450 enzymes.
Data set [2] in a line: Metabolic stability in mouse liver microsomes assessed as compound remaining after 30 mins. As to conditions: read-out: Stability. The format is ADME, Microsome.
The nature of data set [3]: Kinetic solubility of the compound. Format: physicochemical. To be noted: read-out: Kinetic_solubility.
Data set [4] can be described thus: Octanol/aqueous buffer partition coefficient, log D of the compound at pH 7.4. Format: physicochemical.

Structures are written as SMILES. Converted amounts (≈) assume the structure as drawn.

In the case of `Cc1nc(N[C@@H](C)c2cc3cc(Cl)ccc3[nH]c2=O)ncc1C#N`, the remaining at 0.5 h in data set [1] stood at 97%; in data set [2], 98%. Also, in data set [3], the solubility kinetic was 22.4 µM (≈ 7.61 µg/mL). For the same molecule, the logD (in general, the decadic logarithm of the distribution of all forms, ionised or not, between an organic phase and buffer at a given pH) in data set [4] is 3.11.

(Values after ChEMBL document CHEMBL4359816, “Discovery and Optimization of Quinolinone Derivatives as Potent, Selective, and Orally Bioavailable Mutant Isocitrate Dehydrogenase 1 (mIDH1) Inhibitors” (J Med Chem, 2019).)
